# Results from the supplement of paper PMC6411743.
# Amino acid sequences for entries named in this document (tags omitted).
# UniProt P34972, whole entry: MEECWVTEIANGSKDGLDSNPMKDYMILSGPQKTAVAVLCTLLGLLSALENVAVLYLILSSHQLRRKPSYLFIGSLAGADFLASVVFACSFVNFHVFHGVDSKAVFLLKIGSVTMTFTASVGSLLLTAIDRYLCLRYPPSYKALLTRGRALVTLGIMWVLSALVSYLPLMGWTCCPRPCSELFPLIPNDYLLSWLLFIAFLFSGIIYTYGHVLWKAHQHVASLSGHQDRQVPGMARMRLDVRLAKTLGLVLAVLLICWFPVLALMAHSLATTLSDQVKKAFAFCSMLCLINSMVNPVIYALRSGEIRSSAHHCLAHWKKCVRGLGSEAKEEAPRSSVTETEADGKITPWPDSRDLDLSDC
# ± gives the standard deviation of the averaged measurements. Only a part is listed here, and it is no random draw. Most values lie at the level of the controls, where differences are scatter.
# Target: CB2 (UniProt P34972)
# Test: NP40-soluble protein abundance relative to vehicle (solubility fold change) (ratio); higher = more soluble protein in presence of ATP
# Outline: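 Each value is a fold change relative to the detergent-processed vehicle, calculated per replicate from vsn-normalised intensities. Jurkat crude lysate received eight concentrations (0.1 to 10 mM) for 10 min at room temperature and 3 min at 37 °C, then was solubilised in 0.8% NP40 with benzonase (60 min, 4 °C). The ultracentrifuged supernatant was TMT-labelled and run by LC-MS/MS in three independent experiments.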
compound,measurement,setting,value
Nc1ncnc2c1ncn2[C@@H]1O[C@H](COP(=O)(O)OP(=O)(O)OP(=O)(O)O)[C@@H](O)[C@H]1O [adenosine triphosphate],NP40-soluble protein abundance,concentration: 0.1mM,1 ± 0.067
same,NP40-soluble protein abundance,concentration: 0.5mM,1.1 ± 0.12
